# Earlier results as cited in US20130253202A1, “METHOD OF TREATING HEMATOLOGICAL CANCERS” (Niiki Pharma Inc., priority 2010, published 2013).
# For at least one compound, name, drawing or mass did not settle the structure.
# Test system: MV4-11 cells
# Details: Colado et al. 2008, Scatena et al. 2010; cited from earlier work
structure (smiles),measurement,value
"Nc1nc(F)nc2c1ncn2[C@@H]1O[C@H](CO)[C@@H](O)[C@@H]1O [fluradabine, fludarabine]",resistance of MV4-11 cells to the drug,resistant
